From publication PMC11336912
These are yes or no findings as the source states them, for the method shown. Binding seen in cells or lysates may run through a third protein. Some binding calls cover weakened binding; strength is not graded here. For part of these data: Sequences can lack the tags named with a protein. One block for each molecule: values may come before it.

By UniProt entry, the sequences of proteins in these tests, tags left out.
UniProt O75592: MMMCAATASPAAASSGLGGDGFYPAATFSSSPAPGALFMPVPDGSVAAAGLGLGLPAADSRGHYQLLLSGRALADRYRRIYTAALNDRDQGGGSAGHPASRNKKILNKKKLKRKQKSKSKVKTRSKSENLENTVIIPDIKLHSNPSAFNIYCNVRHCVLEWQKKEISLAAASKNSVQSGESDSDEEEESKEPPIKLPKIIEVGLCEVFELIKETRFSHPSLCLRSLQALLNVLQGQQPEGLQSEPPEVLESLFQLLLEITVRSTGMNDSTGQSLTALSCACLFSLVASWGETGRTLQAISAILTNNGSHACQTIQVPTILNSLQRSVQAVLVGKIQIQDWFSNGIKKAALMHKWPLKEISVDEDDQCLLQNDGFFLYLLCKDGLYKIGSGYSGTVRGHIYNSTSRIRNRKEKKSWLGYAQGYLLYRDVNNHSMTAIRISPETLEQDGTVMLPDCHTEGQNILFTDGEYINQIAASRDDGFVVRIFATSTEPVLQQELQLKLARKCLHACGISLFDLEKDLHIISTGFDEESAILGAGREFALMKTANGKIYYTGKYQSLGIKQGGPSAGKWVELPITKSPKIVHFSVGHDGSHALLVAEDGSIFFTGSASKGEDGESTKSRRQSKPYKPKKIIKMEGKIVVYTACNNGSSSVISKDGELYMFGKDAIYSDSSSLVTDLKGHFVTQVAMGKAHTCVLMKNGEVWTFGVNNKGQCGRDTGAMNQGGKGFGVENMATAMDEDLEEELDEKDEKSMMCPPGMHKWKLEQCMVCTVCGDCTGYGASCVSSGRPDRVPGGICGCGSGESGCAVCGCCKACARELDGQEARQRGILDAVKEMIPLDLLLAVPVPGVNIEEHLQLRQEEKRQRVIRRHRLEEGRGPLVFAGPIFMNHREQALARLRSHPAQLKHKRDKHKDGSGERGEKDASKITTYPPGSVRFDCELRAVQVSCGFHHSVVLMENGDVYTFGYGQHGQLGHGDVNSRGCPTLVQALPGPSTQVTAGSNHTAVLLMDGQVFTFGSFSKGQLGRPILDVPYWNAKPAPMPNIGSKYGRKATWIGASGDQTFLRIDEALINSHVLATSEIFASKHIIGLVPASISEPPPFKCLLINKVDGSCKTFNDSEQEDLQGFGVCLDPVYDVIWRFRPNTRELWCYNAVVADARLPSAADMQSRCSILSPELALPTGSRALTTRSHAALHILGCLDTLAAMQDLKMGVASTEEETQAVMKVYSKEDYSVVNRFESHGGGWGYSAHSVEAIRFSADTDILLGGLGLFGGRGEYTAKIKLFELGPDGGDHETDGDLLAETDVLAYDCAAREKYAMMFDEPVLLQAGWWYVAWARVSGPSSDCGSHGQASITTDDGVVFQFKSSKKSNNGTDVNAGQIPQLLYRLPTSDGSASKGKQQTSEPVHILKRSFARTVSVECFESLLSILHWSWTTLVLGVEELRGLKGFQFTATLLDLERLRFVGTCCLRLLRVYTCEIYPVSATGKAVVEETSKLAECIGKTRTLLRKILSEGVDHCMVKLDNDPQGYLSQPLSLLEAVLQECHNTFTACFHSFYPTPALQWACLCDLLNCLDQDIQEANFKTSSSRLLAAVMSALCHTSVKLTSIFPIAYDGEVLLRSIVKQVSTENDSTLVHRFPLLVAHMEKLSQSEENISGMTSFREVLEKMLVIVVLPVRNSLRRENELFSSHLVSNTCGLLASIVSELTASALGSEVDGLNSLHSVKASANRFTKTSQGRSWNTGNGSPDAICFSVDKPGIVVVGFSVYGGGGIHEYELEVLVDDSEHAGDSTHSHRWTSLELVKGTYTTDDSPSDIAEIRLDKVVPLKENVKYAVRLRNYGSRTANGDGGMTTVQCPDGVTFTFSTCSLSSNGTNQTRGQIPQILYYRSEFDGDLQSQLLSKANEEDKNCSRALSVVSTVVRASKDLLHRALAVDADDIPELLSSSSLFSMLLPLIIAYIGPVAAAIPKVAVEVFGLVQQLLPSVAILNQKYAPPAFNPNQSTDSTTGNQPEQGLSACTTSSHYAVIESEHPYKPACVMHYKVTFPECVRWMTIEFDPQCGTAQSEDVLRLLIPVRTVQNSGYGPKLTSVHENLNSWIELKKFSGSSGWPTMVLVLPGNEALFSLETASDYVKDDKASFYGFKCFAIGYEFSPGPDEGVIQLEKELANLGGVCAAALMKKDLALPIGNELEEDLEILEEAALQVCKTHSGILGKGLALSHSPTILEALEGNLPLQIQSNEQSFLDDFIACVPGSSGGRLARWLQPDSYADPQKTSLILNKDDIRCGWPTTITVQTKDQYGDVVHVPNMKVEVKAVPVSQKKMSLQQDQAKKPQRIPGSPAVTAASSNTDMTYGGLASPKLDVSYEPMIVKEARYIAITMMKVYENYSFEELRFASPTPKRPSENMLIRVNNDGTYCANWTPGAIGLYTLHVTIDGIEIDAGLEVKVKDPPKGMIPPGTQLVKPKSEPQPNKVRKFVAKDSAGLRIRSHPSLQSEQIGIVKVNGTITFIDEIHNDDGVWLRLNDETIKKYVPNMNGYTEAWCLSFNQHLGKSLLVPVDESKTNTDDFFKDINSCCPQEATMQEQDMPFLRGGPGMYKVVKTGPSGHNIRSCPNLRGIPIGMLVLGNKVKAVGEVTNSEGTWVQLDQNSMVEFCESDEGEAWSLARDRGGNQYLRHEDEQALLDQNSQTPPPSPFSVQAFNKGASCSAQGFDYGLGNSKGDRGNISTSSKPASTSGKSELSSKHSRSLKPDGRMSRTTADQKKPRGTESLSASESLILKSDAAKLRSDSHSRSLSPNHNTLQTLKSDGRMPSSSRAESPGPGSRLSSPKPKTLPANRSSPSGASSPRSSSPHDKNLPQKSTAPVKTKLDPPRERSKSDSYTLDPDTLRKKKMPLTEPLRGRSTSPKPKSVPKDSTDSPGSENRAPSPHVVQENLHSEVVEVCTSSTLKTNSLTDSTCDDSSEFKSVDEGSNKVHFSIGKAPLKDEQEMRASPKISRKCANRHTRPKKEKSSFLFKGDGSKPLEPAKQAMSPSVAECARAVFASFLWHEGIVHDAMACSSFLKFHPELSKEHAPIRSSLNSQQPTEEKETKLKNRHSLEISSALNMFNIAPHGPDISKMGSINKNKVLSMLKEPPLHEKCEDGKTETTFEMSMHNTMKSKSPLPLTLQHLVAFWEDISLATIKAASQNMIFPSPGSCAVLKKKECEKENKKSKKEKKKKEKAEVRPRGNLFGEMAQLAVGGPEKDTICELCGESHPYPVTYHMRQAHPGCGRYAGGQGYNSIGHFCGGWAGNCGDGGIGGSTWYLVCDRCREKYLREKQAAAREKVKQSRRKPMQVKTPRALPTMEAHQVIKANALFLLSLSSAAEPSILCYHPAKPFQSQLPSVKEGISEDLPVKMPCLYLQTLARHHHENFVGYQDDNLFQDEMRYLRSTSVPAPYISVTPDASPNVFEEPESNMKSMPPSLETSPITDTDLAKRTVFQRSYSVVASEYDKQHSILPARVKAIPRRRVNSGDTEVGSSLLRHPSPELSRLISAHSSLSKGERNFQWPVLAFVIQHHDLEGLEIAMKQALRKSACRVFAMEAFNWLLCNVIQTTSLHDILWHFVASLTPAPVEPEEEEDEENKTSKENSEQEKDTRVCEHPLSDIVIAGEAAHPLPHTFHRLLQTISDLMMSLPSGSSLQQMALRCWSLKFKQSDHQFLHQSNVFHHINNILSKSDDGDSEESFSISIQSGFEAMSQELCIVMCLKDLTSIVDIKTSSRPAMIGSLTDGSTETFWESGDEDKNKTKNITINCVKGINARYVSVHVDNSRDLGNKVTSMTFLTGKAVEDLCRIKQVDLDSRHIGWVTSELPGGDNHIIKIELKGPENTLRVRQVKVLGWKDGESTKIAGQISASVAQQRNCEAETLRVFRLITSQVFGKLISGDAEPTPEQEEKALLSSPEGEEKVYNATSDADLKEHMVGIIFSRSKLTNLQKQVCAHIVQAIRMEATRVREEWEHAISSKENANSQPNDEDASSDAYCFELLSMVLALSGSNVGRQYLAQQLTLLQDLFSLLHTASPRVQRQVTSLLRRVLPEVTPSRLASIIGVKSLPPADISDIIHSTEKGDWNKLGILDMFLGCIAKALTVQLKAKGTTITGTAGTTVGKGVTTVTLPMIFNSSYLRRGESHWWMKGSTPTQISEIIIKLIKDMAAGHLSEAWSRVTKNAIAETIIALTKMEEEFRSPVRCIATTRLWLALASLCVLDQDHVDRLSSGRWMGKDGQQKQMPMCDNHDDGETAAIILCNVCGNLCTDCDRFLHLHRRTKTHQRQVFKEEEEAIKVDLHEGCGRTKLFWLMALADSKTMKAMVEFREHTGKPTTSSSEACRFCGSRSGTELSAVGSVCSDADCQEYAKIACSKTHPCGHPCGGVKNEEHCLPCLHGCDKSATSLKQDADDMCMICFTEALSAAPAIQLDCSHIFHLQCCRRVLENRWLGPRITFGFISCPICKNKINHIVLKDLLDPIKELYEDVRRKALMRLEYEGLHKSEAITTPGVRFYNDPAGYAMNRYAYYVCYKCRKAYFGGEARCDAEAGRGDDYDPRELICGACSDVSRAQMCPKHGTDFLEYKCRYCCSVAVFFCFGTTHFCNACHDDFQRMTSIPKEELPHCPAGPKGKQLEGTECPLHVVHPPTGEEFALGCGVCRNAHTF

Columns and labels:
[1] = biological target: T1, Myc-tagged S100A9 (UniProt P06702); test: co-IP; HEK 293T cells overexpressing Flag-MYCBP2 and Myc-S100A9; Pierce Co-IP Kit, antibodies pre-bound to agarose beads, overnight at 4 °C; Western blot
T1 sequence: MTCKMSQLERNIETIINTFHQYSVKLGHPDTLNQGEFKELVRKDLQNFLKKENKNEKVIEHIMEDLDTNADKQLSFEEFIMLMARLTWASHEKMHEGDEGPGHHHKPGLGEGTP

[2] = biological target: T2, S100A9 (endogenous, microglia) (mouse (endogenous in primary microglia)) (UniProt P31725); test: co-IP; endogenous proteins in microglia lysate; Pierce Co-IP Kit, antibodies pre-bound to agarose beads, overnight at 4 °C; Western blot; control IgG; forward and reverse
T2 sequence: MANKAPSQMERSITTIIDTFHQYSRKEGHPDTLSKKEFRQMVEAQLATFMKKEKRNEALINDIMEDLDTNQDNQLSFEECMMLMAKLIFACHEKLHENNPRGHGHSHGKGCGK

[3] = biological target: MYCBP2 (endogenous, microglia) (mouse (endogenous in primary microglia)) (UniProt Q7TPH6); test: as above

binding [1]: binds
Molecule: Flag-tagged MYCBP2 (from UniProt O75592 1-4678)

binding [2]: binds
Molecule: MYCBP2 (endogenous, microglia) (from UniProt Q7TPH6 1-4749)

binding [3]: binds
B1: S100A9 (endogenous, microglia) (protein, UniProt P31725 1-113)
chain: T2 sequence
